Assay results taken from US20120207721A1.
No constants are given. Whether binding was seen depends on the method and setting. Some results given as binding are weak or reduced against the parent protein; the word gives no strength. Where a sequence is shown, tags or fusion partners need not be part of it.

Sequences of proteins named here, by UniProt entry; tags and fusion partners are left off. A change or cut given only in a name is not applied to a line headed by its entry.
UniProt P06213: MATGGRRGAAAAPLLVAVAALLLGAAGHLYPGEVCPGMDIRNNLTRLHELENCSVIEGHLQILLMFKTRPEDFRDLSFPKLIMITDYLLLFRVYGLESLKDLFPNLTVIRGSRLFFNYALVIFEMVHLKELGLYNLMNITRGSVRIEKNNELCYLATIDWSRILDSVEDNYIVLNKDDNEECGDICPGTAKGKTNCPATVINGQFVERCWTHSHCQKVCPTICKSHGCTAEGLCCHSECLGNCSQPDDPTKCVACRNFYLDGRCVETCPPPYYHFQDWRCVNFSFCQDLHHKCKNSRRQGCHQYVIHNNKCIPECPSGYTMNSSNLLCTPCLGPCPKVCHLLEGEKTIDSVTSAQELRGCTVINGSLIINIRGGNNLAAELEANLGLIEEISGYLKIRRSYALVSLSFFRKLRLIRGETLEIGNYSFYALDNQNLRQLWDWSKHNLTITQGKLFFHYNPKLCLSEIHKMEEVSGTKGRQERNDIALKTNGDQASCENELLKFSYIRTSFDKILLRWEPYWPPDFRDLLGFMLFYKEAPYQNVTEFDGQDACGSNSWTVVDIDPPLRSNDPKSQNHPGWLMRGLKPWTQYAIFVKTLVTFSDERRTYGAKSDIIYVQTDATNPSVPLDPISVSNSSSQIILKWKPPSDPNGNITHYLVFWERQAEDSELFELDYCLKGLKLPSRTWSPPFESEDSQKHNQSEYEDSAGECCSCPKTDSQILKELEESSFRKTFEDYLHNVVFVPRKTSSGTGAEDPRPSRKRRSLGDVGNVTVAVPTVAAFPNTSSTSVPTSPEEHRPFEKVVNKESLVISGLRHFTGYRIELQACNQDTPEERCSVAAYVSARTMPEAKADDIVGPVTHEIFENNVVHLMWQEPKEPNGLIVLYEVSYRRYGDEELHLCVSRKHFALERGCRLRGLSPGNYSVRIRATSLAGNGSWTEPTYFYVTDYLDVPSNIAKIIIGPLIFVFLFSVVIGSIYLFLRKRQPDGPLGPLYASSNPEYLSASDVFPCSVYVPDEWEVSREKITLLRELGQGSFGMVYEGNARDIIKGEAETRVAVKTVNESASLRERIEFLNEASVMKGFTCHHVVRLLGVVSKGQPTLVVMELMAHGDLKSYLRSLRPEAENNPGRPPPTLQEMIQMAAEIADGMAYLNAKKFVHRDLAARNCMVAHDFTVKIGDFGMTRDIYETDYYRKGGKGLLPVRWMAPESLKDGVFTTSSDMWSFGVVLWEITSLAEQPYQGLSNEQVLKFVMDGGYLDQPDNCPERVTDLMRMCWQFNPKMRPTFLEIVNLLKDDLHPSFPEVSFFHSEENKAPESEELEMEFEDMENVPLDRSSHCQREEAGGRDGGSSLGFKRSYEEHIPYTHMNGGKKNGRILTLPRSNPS

Target: human insulin receptor IR-B (overlapping peptides of the entire primary sequence on a SPOT membrane) (human) (UniProt P06213)
Assay: SPOT peptide array of the insulin receptor probed with 125I-labelled soluble SorCS1

binding: binds
B1: soluble mouse SorCS1 protein (125I-tagged) (receptor)
chain: SGTEPEKIEPGEGASRSRRDMLKDGGQQGLGTGARDPGKATRFRMEELRLTSTTFALTGDSAHNQAMVHWSGHNSSVILILTKLYDYNLGSITESSLWRSTDYGTTYEKLNDKVGLKTILSYLYVCPTNKCKIMLLTDPEIESSLLISSDEGATYQKYRLNFYLQSLLFHPKQEDWILAYSQDQKLYSSAEFGRRWQLIQESVVPNRFYWSVMGSSKEPDLVHLEARTVDGHSIYLTCRMQNCTEANRNKPFPGYIDPDSLIVQDDYVFVQLTSGGRPHYYVSYRRSPFAQMKLPKYALPKDMHVISTDENQVFAAVQEWNQNDTYNLYISDTRGVYFTLALENVRSSRGPEGNVMIDLYEVAGIKGMFLANKKIDNQVKTFITYNKGRDWRLLQAPDADLRGDPVHCLLPYCSLHLHLKVSENPYTSGIIASRDTAPSIIVASGNIGSELSDSDISMFVSSDAGNTWRQIFEEEHSILYLDQGGVLVAMKHTSLPIRHLWLSFDEGRSWSKYSFTSIPLFVDGVLGEPGEETLIMTVFGHFSHRSEWQLVKVDYKSIFDRRCAEEDYRPWQLHSQGEACIMGAKRIYKKRKSERKCMQKYAGAMESEPCVCTEADFDCDYGYERHSNGQCLPAFWFNPSSLSKDCSLGQSYLNSAGYRKVVSNNCTDGVREQYTAKPQKCPGKAPRGLRIVTADGKLTAEQGHNVTLMVQLEEGDVQRTLIQVDFGDGIAVSYVNLSSMEDGIKHVYQNVGIFRVTVQVDNSLGSDSAVLYLHVTCPLEHVHLSLPFVTTKNKEVNATAVLWPSQVGTLTYVWWYGNNTEPLITLEGSISFKFTSEGMNTITVQVSAGNAILQDTKTIAVYEEFRSLRLAFSPNLDDYNPDIPEWRRDISRVIKKSLVEATGIPSQHILVAVLPGLPTAAELFVLPYQDGTRENKRSPEDLEQISEVLIHKLNQNLVHFELKPGVQVLVHAAHLTAAPLVDLTPTHS
modifications: 125I-labelled (radioiodinated; residues not stated)
